{"sequences": {"note": "Protein sequences, listed by entry. Tags and fused reporters are not part of them. Lines headed by an entry give the natural chain unless they say otherwise; changes in a name come on top.", "UniProt Q9Y2G0": "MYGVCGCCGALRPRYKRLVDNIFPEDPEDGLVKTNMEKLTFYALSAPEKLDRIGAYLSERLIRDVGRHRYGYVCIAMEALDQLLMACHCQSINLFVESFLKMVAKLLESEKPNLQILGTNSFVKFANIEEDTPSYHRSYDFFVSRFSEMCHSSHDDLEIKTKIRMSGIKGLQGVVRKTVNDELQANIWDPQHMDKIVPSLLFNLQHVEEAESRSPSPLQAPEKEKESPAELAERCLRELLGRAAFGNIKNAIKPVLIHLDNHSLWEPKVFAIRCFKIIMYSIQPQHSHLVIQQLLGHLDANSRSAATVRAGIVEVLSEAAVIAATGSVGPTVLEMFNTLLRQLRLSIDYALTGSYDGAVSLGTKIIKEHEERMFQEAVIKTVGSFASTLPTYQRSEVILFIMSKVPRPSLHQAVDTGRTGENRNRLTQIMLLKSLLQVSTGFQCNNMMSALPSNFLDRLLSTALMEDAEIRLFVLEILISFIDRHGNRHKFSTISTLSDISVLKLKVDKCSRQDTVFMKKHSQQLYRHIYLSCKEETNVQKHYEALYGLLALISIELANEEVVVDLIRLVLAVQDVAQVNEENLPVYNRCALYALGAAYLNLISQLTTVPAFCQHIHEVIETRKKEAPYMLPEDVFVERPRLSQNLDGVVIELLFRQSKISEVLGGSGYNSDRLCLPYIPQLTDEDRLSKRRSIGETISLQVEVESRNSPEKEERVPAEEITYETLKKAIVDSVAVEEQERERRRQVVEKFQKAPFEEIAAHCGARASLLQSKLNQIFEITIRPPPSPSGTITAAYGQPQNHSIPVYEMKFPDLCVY", "UniProt Q9Y2V2": "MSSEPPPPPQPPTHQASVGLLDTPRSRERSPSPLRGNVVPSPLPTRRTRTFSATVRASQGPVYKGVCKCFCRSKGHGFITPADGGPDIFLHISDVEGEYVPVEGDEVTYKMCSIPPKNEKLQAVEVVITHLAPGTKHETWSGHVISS", "UniProt Q9Y2J0": "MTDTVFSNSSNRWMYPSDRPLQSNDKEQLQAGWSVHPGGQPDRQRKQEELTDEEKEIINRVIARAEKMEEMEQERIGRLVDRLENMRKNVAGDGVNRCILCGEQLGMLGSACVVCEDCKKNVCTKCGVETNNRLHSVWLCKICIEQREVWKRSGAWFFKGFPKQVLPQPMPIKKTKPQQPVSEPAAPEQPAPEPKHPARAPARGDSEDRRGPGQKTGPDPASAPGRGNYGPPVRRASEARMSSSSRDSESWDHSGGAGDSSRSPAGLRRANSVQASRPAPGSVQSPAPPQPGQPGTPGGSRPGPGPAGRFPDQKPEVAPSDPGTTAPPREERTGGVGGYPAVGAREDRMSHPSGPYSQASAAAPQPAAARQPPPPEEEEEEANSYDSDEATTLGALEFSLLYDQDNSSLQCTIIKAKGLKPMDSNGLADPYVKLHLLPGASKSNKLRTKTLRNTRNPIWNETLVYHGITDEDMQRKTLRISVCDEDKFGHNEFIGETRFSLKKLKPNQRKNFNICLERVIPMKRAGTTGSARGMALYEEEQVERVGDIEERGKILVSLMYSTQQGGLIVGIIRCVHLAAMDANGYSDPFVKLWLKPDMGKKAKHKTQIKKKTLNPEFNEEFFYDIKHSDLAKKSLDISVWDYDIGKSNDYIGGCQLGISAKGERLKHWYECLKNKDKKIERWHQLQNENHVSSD", "UniProt Q9Y3B1": "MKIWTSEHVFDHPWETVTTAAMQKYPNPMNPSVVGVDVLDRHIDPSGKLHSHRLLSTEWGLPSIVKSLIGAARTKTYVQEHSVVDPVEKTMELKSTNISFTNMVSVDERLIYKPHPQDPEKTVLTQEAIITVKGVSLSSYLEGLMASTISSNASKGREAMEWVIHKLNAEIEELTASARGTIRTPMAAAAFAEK", "UniProt Q9ULJ8": "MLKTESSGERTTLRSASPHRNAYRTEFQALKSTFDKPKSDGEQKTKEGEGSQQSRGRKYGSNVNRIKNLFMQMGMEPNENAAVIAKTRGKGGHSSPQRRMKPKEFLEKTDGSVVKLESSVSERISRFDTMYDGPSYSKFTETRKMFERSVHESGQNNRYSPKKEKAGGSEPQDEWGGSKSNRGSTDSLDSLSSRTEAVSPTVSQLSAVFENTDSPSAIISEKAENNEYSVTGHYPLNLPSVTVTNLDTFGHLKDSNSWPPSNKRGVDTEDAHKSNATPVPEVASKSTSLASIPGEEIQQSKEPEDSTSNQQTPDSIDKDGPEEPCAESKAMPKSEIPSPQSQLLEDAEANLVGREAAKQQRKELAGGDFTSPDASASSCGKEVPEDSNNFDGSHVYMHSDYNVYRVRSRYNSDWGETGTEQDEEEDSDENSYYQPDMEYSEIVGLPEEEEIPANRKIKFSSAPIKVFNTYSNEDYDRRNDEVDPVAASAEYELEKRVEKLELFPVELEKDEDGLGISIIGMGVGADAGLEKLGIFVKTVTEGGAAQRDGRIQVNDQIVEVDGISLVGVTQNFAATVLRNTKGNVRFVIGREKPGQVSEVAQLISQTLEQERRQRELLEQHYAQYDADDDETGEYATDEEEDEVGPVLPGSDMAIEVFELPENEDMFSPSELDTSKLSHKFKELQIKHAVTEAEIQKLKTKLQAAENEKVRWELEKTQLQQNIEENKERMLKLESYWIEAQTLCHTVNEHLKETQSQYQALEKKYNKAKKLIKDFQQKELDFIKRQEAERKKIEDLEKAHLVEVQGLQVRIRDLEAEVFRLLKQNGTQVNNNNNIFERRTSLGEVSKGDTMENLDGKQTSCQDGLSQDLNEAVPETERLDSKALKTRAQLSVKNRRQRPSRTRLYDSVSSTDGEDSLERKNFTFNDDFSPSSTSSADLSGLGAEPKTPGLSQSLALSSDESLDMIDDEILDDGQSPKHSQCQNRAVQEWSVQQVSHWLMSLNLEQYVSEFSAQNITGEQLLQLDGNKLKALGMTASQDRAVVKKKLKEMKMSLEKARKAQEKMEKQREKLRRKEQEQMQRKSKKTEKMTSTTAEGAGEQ", "UniProt Q9Y2L9": "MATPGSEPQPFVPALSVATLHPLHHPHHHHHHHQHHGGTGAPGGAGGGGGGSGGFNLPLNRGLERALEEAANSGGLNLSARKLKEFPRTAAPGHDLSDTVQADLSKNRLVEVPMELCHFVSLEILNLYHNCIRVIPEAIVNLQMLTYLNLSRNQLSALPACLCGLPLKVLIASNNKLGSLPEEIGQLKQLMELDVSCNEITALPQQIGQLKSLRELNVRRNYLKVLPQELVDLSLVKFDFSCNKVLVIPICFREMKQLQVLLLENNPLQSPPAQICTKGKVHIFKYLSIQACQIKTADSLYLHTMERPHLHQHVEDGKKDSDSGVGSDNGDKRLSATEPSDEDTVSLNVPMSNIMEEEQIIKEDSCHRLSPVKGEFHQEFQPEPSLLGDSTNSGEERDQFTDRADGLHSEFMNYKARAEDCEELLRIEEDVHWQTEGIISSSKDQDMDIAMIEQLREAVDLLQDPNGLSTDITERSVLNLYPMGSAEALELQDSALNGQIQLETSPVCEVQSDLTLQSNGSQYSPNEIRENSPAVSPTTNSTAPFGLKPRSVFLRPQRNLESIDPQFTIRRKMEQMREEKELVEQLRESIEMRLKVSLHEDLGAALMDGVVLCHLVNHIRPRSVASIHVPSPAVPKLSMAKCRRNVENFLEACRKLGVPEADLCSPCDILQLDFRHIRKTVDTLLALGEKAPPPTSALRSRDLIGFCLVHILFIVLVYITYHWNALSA", "UniProt Q9Y2G9": "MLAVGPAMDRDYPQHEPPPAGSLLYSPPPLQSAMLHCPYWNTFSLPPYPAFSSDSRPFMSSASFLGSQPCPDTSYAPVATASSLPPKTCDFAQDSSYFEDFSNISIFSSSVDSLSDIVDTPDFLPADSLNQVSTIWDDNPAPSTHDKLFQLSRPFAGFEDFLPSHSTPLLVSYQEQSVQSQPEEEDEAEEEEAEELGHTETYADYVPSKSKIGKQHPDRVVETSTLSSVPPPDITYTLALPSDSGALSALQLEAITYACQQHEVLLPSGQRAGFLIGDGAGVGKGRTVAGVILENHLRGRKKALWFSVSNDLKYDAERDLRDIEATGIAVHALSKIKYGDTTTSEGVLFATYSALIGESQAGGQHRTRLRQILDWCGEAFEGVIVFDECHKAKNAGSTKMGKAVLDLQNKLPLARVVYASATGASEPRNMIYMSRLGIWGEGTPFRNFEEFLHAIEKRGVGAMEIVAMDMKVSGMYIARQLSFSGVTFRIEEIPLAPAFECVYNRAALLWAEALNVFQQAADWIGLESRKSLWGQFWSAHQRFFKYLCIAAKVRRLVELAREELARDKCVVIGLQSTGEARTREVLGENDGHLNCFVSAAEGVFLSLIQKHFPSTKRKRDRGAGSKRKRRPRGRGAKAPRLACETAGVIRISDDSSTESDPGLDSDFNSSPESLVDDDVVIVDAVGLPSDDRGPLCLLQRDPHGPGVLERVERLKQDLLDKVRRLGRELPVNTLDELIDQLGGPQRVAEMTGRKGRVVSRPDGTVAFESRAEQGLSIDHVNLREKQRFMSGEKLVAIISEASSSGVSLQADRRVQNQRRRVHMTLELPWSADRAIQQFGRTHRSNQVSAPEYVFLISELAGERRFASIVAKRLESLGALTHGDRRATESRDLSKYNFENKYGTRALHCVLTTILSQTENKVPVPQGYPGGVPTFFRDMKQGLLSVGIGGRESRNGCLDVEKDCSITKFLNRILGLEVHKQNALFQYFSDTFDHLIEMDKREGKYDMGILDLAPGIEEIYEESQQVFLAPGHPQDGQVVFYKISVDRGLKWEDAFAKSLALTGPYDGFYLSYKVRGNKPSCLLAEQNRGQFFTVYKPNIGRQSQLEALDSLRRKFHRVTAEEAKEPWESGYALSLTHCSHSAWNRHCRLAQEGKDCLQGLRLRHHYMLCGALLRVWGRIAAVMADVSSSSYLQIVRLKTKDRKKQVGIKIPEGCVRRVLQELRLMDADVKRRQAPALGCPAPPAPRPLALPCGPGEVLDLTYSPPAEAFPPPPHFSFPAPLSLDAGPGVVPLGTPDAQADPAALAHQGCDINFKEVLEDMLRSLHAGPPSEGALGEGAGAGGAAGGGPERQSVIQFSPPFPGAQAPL", "UniProt Q9ULM6, whole entry": "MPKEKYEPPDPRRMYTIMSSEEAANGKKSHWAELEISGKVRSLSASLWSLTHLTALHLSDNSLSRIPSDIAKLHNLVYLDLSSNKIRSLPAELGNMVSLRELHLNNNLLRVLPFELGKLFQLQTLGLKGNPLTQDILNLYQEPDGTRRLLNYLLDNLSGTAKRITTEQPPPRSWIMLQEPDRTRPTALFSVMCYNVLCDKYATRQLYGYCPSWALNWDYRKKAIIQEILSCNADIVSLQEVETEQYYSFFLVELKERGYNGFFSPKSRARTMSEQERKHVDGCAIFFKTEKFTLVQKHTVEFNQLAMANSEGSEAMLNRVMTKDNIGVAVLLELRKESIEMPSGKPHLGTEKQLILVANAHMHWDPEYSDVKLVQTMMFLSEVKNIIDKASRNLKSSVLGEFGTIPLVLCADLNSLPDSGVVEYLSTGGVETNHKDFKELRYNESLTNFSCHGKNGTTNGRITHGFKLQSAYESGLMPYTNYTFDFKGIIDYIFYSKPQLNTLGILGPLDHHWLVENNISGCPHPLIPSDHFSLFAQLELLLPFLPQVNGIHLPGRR", "UniProt Q9Y2K1": "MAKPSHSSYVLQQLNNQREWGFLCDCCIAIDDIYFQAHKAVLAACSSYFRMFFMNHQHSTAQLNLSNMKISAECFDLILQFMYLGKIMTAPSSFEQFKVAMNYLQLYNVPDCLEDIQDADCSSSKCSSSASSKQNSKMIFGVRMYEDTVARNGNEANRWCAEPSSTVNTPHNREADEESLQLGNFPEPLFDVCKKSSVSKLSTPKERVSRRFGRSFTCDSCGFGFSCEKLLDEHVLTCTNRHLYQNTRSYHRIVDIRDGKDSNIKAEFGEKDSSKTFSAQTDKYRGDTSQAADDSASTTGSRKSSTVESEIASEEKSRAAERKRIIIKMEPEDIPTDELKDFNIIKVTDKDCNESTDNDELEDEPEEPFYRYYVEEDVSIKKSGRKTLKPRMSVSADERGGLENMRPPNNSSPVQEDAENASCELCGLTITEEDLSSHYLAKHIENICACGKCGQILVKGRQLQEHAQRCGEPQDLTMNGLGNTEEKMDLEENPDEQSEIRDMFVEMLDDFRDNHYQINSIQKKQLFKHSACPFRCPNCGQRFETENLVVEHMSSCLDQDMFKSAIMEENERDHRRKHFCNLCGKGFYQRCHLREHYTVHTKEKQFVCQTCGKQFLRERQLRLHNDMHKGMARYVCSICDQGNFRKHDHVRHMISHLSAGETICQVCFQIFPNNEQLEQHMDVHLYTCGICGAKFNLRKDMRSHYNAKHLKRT", "UniProt Q9Y224": "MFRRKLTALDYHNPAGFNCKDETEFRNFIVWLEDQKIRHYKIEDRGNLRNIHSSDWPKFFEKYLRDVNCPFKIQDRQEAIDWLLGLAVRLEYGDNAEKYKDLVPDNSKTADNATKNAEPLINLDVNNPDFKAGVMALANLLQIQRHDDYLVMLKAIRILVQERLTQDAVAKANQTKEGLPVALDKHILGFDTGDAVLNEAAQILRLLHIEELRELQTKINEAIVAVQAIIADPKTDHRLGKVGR"}, "source": "the supplement of paper PMC12819154", "about": "“High-throughput peptide-centric local stability assay extends protein–ligand identification to membrane proteins, tissues and bacteria” (Nature Structural & Molecular Biology, 2025)", "note": "The list shows a part of the results. Most entries show no effect beyond the scatter of the controls.", "data": [{"compound": "CN[C@@H]1C[C@H]2O[C@@](C)([C@@H]1OC)n1c3ccccc3c3c4c(c5c6ccccc6n2c5c31)C(=O)NC4 [staurosporine]", "experiment": "log2 fold change of tryptic peptide abundance, ligand vs vehicle (limited proteolysis) (log2 ratio); higher = more trypsin-susceptible (destabilized)", "settings": "ligand concentration: 20 uM; sample: K562 cleared lysate; digestion: 4 min, 22 C (HT-PELSA RT4min, Orbitrap Astral)", "values": [{"target": "SH2B3 (peptide sequence: GWSEFCELHAVAAAR, peptide start residue: 25) (UniProt Q9UQQ2)", "log2 fold change": -0.616}, {"target": "UniProt Q9Y2G0 (peptide sequence: FANIEEDTPSYHR, peptide start residue: 126)", "log2 fold change": 0.118}, {"target": "NISCH (peptide sequence: GSAIIELFHSSIAEVENEELR, peptide start residue: 1139) (UniProt Q9Y2I1)", "log2 fold change": 0.789}, {"target": "PIN4 (peptide sequence: IMEAMEK, peptide start residue: 51) (UniProt Q9Y237)", "log2 fold change": -0.281}, {"target": "FAF1 (peptide sequence: EMAEQFR, peptide start residue: 532) (UniProt Q9UNN5)", "log2 fold change": -0.0866}, {"target": "CARHSP1 (peptide sequence: LQAVEVVITHLAPGTK, peptide start residue: 121) (UniProt Q9Y2V2)", "log2 fold change": 0.105}, {"target": "ANKRD26 (peptide sequence: NLLNANLSEDEKEQLKK, peptide start residue: 1318) (UniProt Q9UPS8)", "log2 fold change": 0.311}, {"target": "UniProt Q9Y2J0 (peptide sequence: TGGVGGYPAVGAR, peptide start residue: 333)", "log2 fold change": -0.244}, {"target": "UniProt Q9Y3B1 (peptide sequence: TPMAAAAFAEK, peptide start residue: 184)", "log2 fold change": -0.231}, {"target": "TRIM33 (peptide sequence: LLPCLHSFCLRCLPEPER, peptide start residue: 142) (UniProt Q9UPN9)", "log2 fold change": -0.629}, {"target": "NUDT5 (peptide sequence: TTYMDPTGK, peptide start residue: 34) (UniProt Q9UKK9)", "log2 fold change": 0.0876}, {"target": "PPP1R9A (peptide sequence: MTSTTAEGAGEQ, peptide start residue: 1087) (UniProt Q9ULJ8)", "log2 fold change": -0.107}, {"target": "COPS3 (peptide sequence: QLSAQGQMTQLCELINK, peptide start residue: 14) (UniProt Q9UNS2)", "log2 fold change": 0.7}, {"target": "LRCH1 (peptide sequence: NLESIDPQFTIRR, peptide start residue: 559) (UniProt Q9Y2L9)", "log2 fold change": 0.272}, {"target": "SBNO2 (peptide sequence: AEQGLSIDHVNLR, peptide start residue: 771) (UniProt Q9Y2G9)", "log2 fold change": -0.39}, {"target": "CNOT6 (peptide sequence: VLPFELGK, peptide start residue: 111) (UniProt Q9ULM6)", "log2 fold change": 0.201}, {"target": "LEMD3 (peptide sequence: LREEEQQQHR, peptide start residue: 46) (UniProt Q9Y2U8)", "log2 fold change": 0.426}, {"target": "TTF2 (peptide sequence: QVLSGSGESVTK, peptide start residue: 1139) (UniProt Q9UNY4)", "log2 fold change": -0.193}, {"target": "NOB1 (peptide sequence: VSVTVSDDGTLHMHFSR, peptide start residue: 296) (UniProt Q9ULX3)", "log2 fold change": -0.784}, {"target": "TRAPPC4 (peptide sequence: VGHAVLAINGMDVNGR, peptide start residue: 59) (UniProt Q9Y296)", "log2 fold change": 0.58}, {"target": "ZBTB1 (peptide sequence: KSSTVESEIASEEK, peptide start residue: 303) (UniProt Q9Y2K1)", "log2 fold change": 0.168}, {"target": "EXO1 (peptide sequence: SHSWDDKTCQK, peptide start residue: 353) (UniProt Q9UQ84)", "log2 fold change": -0.623}, {"target": "UniProt Q9Y2Q1 (peptide sequence: AFNWSSALTTLTQHK, peptide start residue: 408)", "log2 fold change": -0.378}, {"target": "UniProt Q9Y224 (peptide sequence: HDDYLVMLK, peptide start residue: 146)", "log2 fold change": 0.0595}, {"target": "UniProt Q9Y2U5 (peptide sequence: AYGALTENVTR, peptide start residue: 451)", "log2 fold change": -0.427}, {"target": "UniProt Q9Y2K7 (peptide sequence: LTPVRPAAASPIVSGAR, peptide start residue: 549)", "log2 fold change": -0.221}, {"target": "PTBP2 (peptide sequence: DFGNSPLHR, peptide start residue: 430) (UniProt Q9UKA9)", "log2 fold change": -0.319}, {"target": "PRR12 (peptide sequence: GGETPEGLATSVVHYGAGAK, peptide start residue: 735) (UniProt Q9ULL5)", "log2 fold change": 0.257}]}]}
